Measurements reported in PubChem BioAssay AID686937 (Drosophila RNAi Screening Center, 2013)

Aim: 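Genes in the fly needed for secretion of protein constitutively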 (primary screen)
System: Drosophila S2 cells expressing secreted horseradish peroxidase
Reagents: long dsRNA against Drosophila genes
Time to read-out: about 5.5 days (5 days dsRNA, then 12 h reporter induction)
Challenge: reporter expression induced after 5 days of dsRNA, read 12 h later; inducer not stated
Measured: 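After 5 days of dsRNA and 12 h of reporter induction, medium peroxidase read by chemiluminescence and scored as per-plate z-score; higher values mean more reporter released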
Scale: z-score: higher = more reporter secreted into medium
In all, the deposit lists about 23,000 reagents; this is a random part of those with a known target gene and a result. 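Reduced-secretion tags in replicate 1 do not always agree with the z-scores; no criterion for assigning the tags was given.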 A plus sign joins genes that one reagent is predicted to hit. Not stated in the record: the amount of reagent.

gene knocked down | DRSC id | z-score, replicate 1 | z-score, replicate 2 | z-score, replicate 3 | z-score, replicate 4 | phenotype, replicate 1
Cyp4g15 | DRSC20240 | 0.36 | 0.14 | – | – | –
Tis11 | DRSC20293 | -0.81 | -0.74 | – | – | –
disco-r | DRSC20173 | 0.03 | 0.43 | – | – | –
disco-r | DRSC20174 | 0.24 | 0.55 | – | – | –
CG17290 | DRSC06662 | 0.54 | 0.63 | – | – | –
CG10834 | DRSC03693 | -0.1 | -0.29 | – | – | –
Ada | DRSC14463 | 0.06 | 0.22 | – | – | –
pre-mod(mdg4)-W + pre-mod(mdg4)-Y + mod(mdg4) + 3 more | DRSC16328 | 0.43 | 0.2 | – | – | –
Sos | DRSC03439 | -1.72 | -0.63 | – | – | reduced secretion
Prosbeta3 | DRSC16801 | -5.28 | -4.63 | – | – | reduced secretion
CG3719 | DRSC18493 | 0.64 | 0.47 | – | – | –
CG6136 | DRSC15975 | 0.16 | 0.25 | – | – | –
asRNA:CR42547 + CG15674 | DRSC04264 | -0.02 | 0.26 | – | – | –
Exo84 | DRSC15965 | 0.08 | -0.03 | – | – | –
SsRbeta | DRSC11290 | 0.24 | -0.06 | – | – | –
Sbat | DRSC00160 | 0.42 | 0.23 | – | – | –
ND-ASHI | DRSC18291 | 0.26 | 0.58 | – | – | –
CG9525 | DRSC03249 | 0.55 | 0.14 | – | – | –

Copied from above for reference:
gene knocked down | DRSC id | z-score, replicate 1 | z-score, replicate 2 | z-score, replicate 3 | z-score, replicate 4 | phenotype, replicate 1
Prosbeta3 | DRSC16801 | -5.28 | -4.63 | – | – | reduced secretion
CG3719 | DRSC18493 | 0.64 | 0.47 | – | – | –

More entries:
gene knocked down | DRSC id | z-score, replicate 1 | z-score, replicate 2 | z-score, replicate 3 | z-score, replicate 4 | phenotype, replicate 1
esg | DRSC03530 | -0.37 | 0.11 | – | – | –
v | DRSC20383 | 0.39 | 0.4 | – | – | –
ND2 (retired record) | DRSC21274 | 0.53 | 0.15 | 0.39 | -0.13 | –
CG18542 + CG32939 | DRSC15342 | 0.33 | 0.38 | – | – | –
TwdlV | DRSC12226 | 0.25 | 0.44 | – | – | –
RpS15Ab + RpS15Aa | DRSC06129 | -2.58 | -3.29 | – | – | reduced secretion
RpS15Ab + RpS15Aa | DRSC19831 | -1.93 | -2.64 | – | – | reduced secretion
CG13460 | DRSC10007 | 0.03 | 0.02 | – | – | –
RAF2 | DRSC10443 | 0.25 | 0.27 | – | – | –
RAF2 | DRSC10454 | 0.23 | 0.16 | – | – | –
CG32834 | DRSC21929 | 0.15 | -0.06 | – | – | –
Vha13 | DRSC16895 | -0.05 | 0.09 | – | – | –
CG11155 | DRSC17184 | 0.82 | 0.24 | – | – | –
CG11155 | DRSC17205 | 0.41 | 0.2 | – | – | –
CG32284 | DRSC08025 | 0.47 | 0.1 | – | – | –
